This note sets out measurements from PubChem BioAssay AID192 (DTP/NCI, 2004).

The list does not hold the whole screen: it is rich in T/C values a quarter to a half above the control, in often repeated tests (any T/C) and in doses without a T/C. Further doses and runs are listed elsewhere. T/C: endpoint of the treated group in % of that of the vehicle group. Some doses have a count of surviving animals in place of a T/C: the source holds a T/C of zero for them, seemingly a mark for toxic or unscored doses. Some doses without a T/C left all or most animals alive at the check, yet need not have been tolerated: the source hardly ever lists a survival T/C far under the control, and the zero likely stands for such cases as well. Survivors were counted at the toxicity check, usually on the fifth day, unless a day is given; later deaths do not show. Schedules are NCI's codes, read here as Q, the interval in days (D) or hours (H), X, the number of doses. Signs of the kind (2×) say how often a value occurs here. Some entries hold several experiments; their values stand side by side, smallest first. For survival time, the PubChem record calls one and a half times the control and up active, and a quarter to a half above the control has no call in these data; cut-offs in other NCI protocols can differ. Some T/C values are followed by the survivors on the day toxicity was checked, most often the fifth; without a count, all were alive then.

The test system of the assay is BDF1 mice, B16 melanoma ip, median survival T/C. Nature of the assay: NCI In Vivo Anticancer Drug Screen. Data for tumor model B16 Melanoma (intraperitoneal) in B6D2F1 (BDF1) mice. The settings on record: T/C endpoint: median survival time, higher T/C = longer survival. The gist of the method: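 Compounds were tested in mice carrying transplantable tumors. Survival or tumor size was recorded, and each value is the treated-group measurement (T) divided by that of the vehicle-treated control group (C).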

[1] abbreviates: dose: 200.0 mg/kg/injection, schedule: Q01DX009 (ip), vehicle: saline with Tween-80.
Where [2] appears, read: dose: 50.0 mg/kg/injection, schedule: Q01DX009 (ip), vehicle: saline with Tween-80.
Setting [3] is: dose: 400.0 mg/kg/injection, schedule: Q01DX009 (ip), vehicle: Klucel (hydroxypropylcellulose) (HPC).
The mark [4] stands for this setting: dose: 25.0 mg/kg/injection, schedule: Q01DX009 (ip), vehicle: Klucel (hydroxypropylcellulose) (HPC).
The mark [5] stands for this setting: dose: 50.0 mg/kg/injection, schedule: Q01DX009 (ip), vehicle: Klucel (hydroxypropylcellulose) (HPC).
The mark [6] stands for this setting: dose: 100.0 mg/kg/injection, schedule: Q01DX009 (ip), vehicle: Klucel (hydroxypropylcellulose) (HPC).
[7] abbreviates: dose: 400.0 mg/kg/injection, schedule: Q01DX009 (ip), vehicle: saline.
[8] abbreviates: dose: 25.0 mg/kg/injection, schedule: Q01DX009 (ip), vehicle: saline with Tween-80.
Where [9] appears, read: dose: 200.0 mg/kg/injection, schedule: Q01DX009 (ip), vehicle: saline.
[10] abbreviates: dose: 12.5 mg/kg/injection, schedule: Q01DX009 (ip), vehicle: saline with Tween-80.
[11] abbreviates: dose: 400.0 mg/kg/injection, schedule: Q04DX003 (ip), vehicle: saline with Tween-80.
[12] abbreviates: dose: 25.0 mg/kg/injection, schedule: Q01DX009 (ip), vehicle: saline.
Where [13] appears, read: dose: 50.0 mg/kg/injection, schedule: Q01DX009 (ip), vehicle: saline.
The mark [14] stands for this setting: dose: 100.0 mg/kg/injection, schedule: Q01DX009 (ip), vehicle: saline.
[15] abbreviates: dose: 200.0 mg/kg/injection, schedule: Q01DX009 (ip), vehicle: Klucel (hydroxypropylcellulose) (HPC).
Where [16] appears, read: dose: 160.0 mg/kg/injection, schedule: Q01DX009 (ip), vehicle: water.
Where [17] appears, read: dose: 12.5 mg/kg/injection, schedule: Q01DX009 (ip), vehicle: saline.

As for `CCNNC(=O)[C@@H]1[C@H](c2cc(OC)c(OC)c(OC)c2)c2cc3c(cc2[C@H](O)[C@H]1CO)OCO3`, the survivor count under setting [1] is on record as 1 of 6.

For the molecule `C#CCSC(=S)NNc1ccccc1`, the T/C under setting [2] was 128 % of control.

As to `OC1CCCC2CCC[N-]C12.OC1CCCC2CCC[N-]C12.[Mn+2]` (configuration not stated), the survivor count under setting [3] is on record as 4 of 10.

Take `Cc1cccc(NC(=O)Nc2cccc3ccccc23)c1C`: the survivor count is given as 10 of 10 under setting [4], 10 of 10 under setting [5] and 10 of 10 under setting [6].

As to `Nc1ccccc1O`, the survivor count under setting [7] is 5 of 10.

As for `NCCN.[Ni+2].[O-]c1ccccc1[O-].[O-]c1ccccc1[O-]`, under setting [8], the survivor count was 9 of 10.

With `COC(=O)C1C2CC3c4[nH]c5cc(OC)ccc5c4CCN3CC2CC(OC2CCCCO2)C1OC` (configuration not stated), the T/C (dose: 6.25 mg/kg/injection, schedule: Q04DX003 (ip), vehicle: Klucel (hydroxypropylcellulose) (HPC)) was 125 % of control. Besides, the survivor count by setting is: (dose: 200.0 mg/kg/injection, schedule: Q04DX003 (ip), vehicle: Klucel (hydroxypropylcellulose) (HPC)) 8 of 10; (dose: 400.0 mg/kg/injection, schedule: Q04DX003 (ip), vehicle: Klucel (hydroxypropylcellulose) (HPC)) 2 of 10.

Regarding `COc1cc2c(cc1OC)[C@H]1CNC[C@H]1[C@@H](c1ccccc1)C2`, the survivor count under setting [9] was 7 of 10.

As to `CCc1ccc2c(c1)N(CCCN(CCCl)CCCl)c1ccccc1S2`, the T/C under setting [10] was 141 % of control. Besides, the survivor count is 8 of 10 under setting [10]; 4 of 10 and 5 of 10 under setting [8].

Regarding `CCNC(C)(C)C(SSSC(c1cccs1)C(C)(C)NCC)c1cccs1` (configuration not stated), under setting [6], the survivor count is reported as 10 of 10.

For the molecule `CCCCC(C=O)(C=C=C(C)C)CC` (configuration not stated), the survivor count under setting [11] is recorded as 10 of 10.

For `N#CCN1CCCCC1`, the survivor count under setting [12] is 10 of 10, the survivor count under setting [13] is 9 of 10 and the survivor count under setting [14] is on record as 0 of 10.

Regarding `N#Cc1nc2ccccc2nc1C#N`, the survivor count is given as 7 of 10 under setting [4] and 1 of 10 under setting [5].

For `Cc1cc(OC(=O)c2ccc(N(C)C)cc2)ccc1[N+](=O)[O-]`, the survivor count by setting is: under setting [6], 10 of 10; under setting [15], 10 of 10; under setting [3], 10 of 10.

For the molecule `C[C@]12CC[C@H](OC3OC(CO)C(O)C(O)C3O)C[C@H]1CC[C@@H]1[C@@H]2CC[C@]2(C)[C@@H](C3=CCOC3=O)CC[C@]12O` (some centres not stated), where the note is “dose: 4.0 mg/kg/injection, schedule: Q01DX009 (ip), vehicle: saline”, the survivor count is given as 10 of 10.

For the molecule `CCCCOP(=O)(CCl)OCCCC`, the survivor count under setting [15] is given as 8 of 10.

For the molecule `O=[N+]([O-])c1cccc(C(O)C=C(C(F)(F)F)C(F)(F)F)c1` (configuration not stated), the survivor count under setting [2] is 10 of 10.

On to `O=S(=O)(O)O.[W]`, for which the survivor count was 9 of 10 (2×) (dose: 3.0 mg/kg/injection, schedule: Q01DX009 (ip), vehicle: saline) and 10 of 10 (2×) (dose: 6.0 mg/kg/injection, schedule: Q01DX009 (ip), vehicle: saline).

As to `COc1cc2c3cc1Oc1c(O)c(OC)cc4c1[C@H](Cc1ccc(cc1)Oc1cc(ccc1O)C[C@H]3N(C)CC2)N(C)CC4`, the T/C under setting [16] was 141 % of control [9 of 10 alive]. In addition, the survivor count is recorded as 10 of 10 under setting [16] and 10 of 10 under setting [1].

As for `CCCCCNC(=O)Nc1cccc(Cl)c1C`, the survivor count is, setting by setting: (dose: 100.0 mg/kg/injection, schedule: Q01DX009 (ip), vehicle: saline with Tween-80) 10 of 10; under setting [1], 8 of 10.

In the case of `Cc1cccc(C)c1NC(=O)c1ccc(Cl)cc1Cl`, the survivor count by setting is: under setting [15], 10 of 10; under setting [3], 10 of 10.

Take `OC(c1ccccc1)(c1ccccc1)C1CC1c1ccncc1` (configuration not stated): the survivor count under setting [9] is given as 0 of 10.

As for `Cc1cccc(C)c1NC(=O)c1ccccc1`, the survivor count is listed as 10 of 10 (dose: 12.5 mg/kg/injection, schedule: Q01DX009 (ip), vehicle: Klucel (hydroxypropylcellulose) (HPC)); 10 of 10 under setting [12]; 10 of 10 under setting [6]; 10 of 10 under setting [15]; 10 of 10 under setting [3].

Turning to `CN(N=O)C(=O)Nc1c[nH]c(=O)[nH]c1=O`, the T/C reads like this: (dose: 2.0 mg/kg/injection, schedule: Q01DX009 (ip), vehicle: saline with Tween-80) 126 % of control; (dose: 4.0 mg/kg/injection, schedule: Q01DX009 (ip), vehicle: saline with Tween-80) 141 % of control; under setting [17], 138 % of control. Also, the survivor count under setting [13] is 6 of 6.

Regarding `COC(=O)/C=C/c1ccc(OC)cc1`, the survivor count (dose: 100.0 mg/kg/injection, schedule: Q04DX003 (ip), vehicle: Klucel (hydroxypropylcellulose) (HPC)) was 10 of 10.

On to `CC(=O)OCC1OC(n2cnc3c(=S)nc(N)[nH]c32)C(OC(C)=O)C1OC(C)=O` (configuration not stated), for which the survivor count under setting [13] is 10 of 10.

As for `Cc1ccc(C(=O)CCC(=O)O)c(C)c1`, the survivor count (dose: 400.0 mg/kg/injection, schedule: Q01DX009 (ip), vehicle: saline with Tween-80) is on record as 8 of 10.

Regarding `CCCCCCCCCCCC[S+](C)C`, the survivor count (dose: 32.0 mg/kg/injection, schedule: Q01DX009 (ip), vehicle: saline sonified) is 4 of 6.

Take `CN1C2CCC1CC(OC(c1ccccc1)c1ccccc1)C2` (configuration not stated): the survivor count by setting is: under setting [13], 0 of 10; under setting [14], 0 of 10; under setting [9], 0 of 10; under setting [7], 0 of 10.

As for `Cc1cccc(/C=N/OCCC(C)C)n1`, under setting [1], the survivor count was 10 of 10.

As for `C=C1C(=O)C23[C@H](O)C1CC[C@H]2[C@]12COC3(O)[C@@H](O)[C@@H]1C(C)(C)CC[C@@H]2O`, the survivor count runs as follows: under setting [10], 9 of 10; under setting [8], 7 of 10; under setting [2], 2 of 10.

`COC1=Nc2ccccc2N2CCN=C12`: the survivor count runs as follows: (dose: 100.0 mg/kg/injection, schedule: Q04DX003 (ip), vehicle: saline with Tween-80) 10 of 10; (dose: 200.0 mg/kg/injection, schedule: Q04DX003 (ip), vehicle: saline with Tween-80) 0 of 10; under setting [11], 0 of 10.

In the case of `CCCCCCCCCCCCCCCCS(=O)(=O)c1ccc(NN)cc1`, the survivor count runs as follows: under setting [6], 10 of 10; under setting [3], 10 of 10.

`NC(CC(=O)CCl)C(=O)O` (configuration not stated): the T/C is 126 % of control under setting [17] and 137 % of control under setting [12].

Consider `C=CCNC(=O)c1ccccc1SC(C)=O`, for which the survivor count (dose: 800.0 mg/kg/injection, schedule: Q01DX009 (ip), vehicle: saline + Tween-80 + alcohol) is reported as 0 of 10.

Regarding `CCN1C[C@]2(COC)[C@H](O)C[C@H](OC)[C@]34C1[C@H]([C@H](OC)[C@H]23)[C@]1(OC(C)=O)[C@H]2[C@@H](OC(=O)c3ccccc3)[C@](O)(C[C@H]24)[C@@H](OC)[C@@H]1O`, the survivor count reads like this: (dose: 0.13 mg/kg/injection, schedule: Q01DX009 (ip), vehicle: Klucel (hydroxypropylcellulose) (HPC)) 10 of 10; (dose: 0.25 mg/kg/injection, schedule: Q01DX009 (ip), vehicle: Klucel (hydroxypropylcellulose) (HPC)) 8 of 10; (dose: 0.5 mg/kg/injection, schedule: Q01DX009 (ip), vehicle: Klucel (hydroxypropylcellulose) (HPC)) 7 of 10; (dose: 1.0 mg/kg/injection, schedule: Q01DX009 (ip), vehicle: Klucel (hydroxypropylcellulose) (HPC)) 0 of 10; (dose: 30.0 micrograms/kg/injection, schedule: Q01DX009 (ip), vehicle: Klucel (hydroxypropylcellulose) (HPC)) 10 of 10.
